Reference: PubChem BioAssay AID652243 (Drosophila RNAi Screening Center, 2013)
The deposit covers about 24,000 reagents; below is a random part of those that have a named target and a result. Over the whole deposit, 246 (1%) were called active. 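Plates not normalised; calls are printed but the firefly/Renilla ratio behind them is not deposited; fold cut for lowering reported inconsistently.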 The raw values are shown without normalisation. The numbers tell different reagents against one gene apart. Reagent sequences are not shown. The record does not give: the amount of reagent.

Purpose: 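Fly genes required for human androgen receptor driven transcription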 (primary screen)
Cell system: Drosophila S2R+ cells
Reagents: long dsRNA against Drosophila genes
Time to read-out: 72 h (48 h, then 24 h hormone)
Conditions: synthetic androgen R1881 at 10 nM for 24 h
Measurement: 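Per-well raw luminescence of the androgen-driven firefly reporter and of the Renilla control, two replicates each, without normalisation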
Reading the numbers: firefly reporter light: higher = more light from androgen-responsive reporter; Renilla control light: higher = more constitutive control signal (cell number, transfection)
Active means: 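Across duplicate plates, a knock-down whose log firefly/Renilla ratio shifted a set fold down or up from the GFP/LacZ control mean was a hit; the downward cut appears as both 1.5 and 3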
Calls: active = hit: reporter lowered or raised; inactive = no hit

CG13344 (GeneID 36541) showed firefly reporter light, replicate 1 = 8.42e5; firefly reporter light, replicate 2 = 8.85e5; Renilla control light, replicate 1 = 9.51e5; Renilla control light, replicate 2 = 9.95e5; inactive. CG32631 (GeneID 32311) #1 scored firefly reporter light, replicate 1 = 96248; firefly reporter light, replicate 2 = 1.08e5; Renilla control light, replicate 1 = 7.49e5; Renilla control light, replicate 2 = 7.28e5; inactive. Against CG32631 (GeneID 32311) #2, the values are firefly reporter light, replicate 1 = 3.69e5; firefly reporter light, replicate 2 = 3.70e5; Renilla control light, replicate 1 = 1.32e6; Renilla control light, replicate 2 = 1.31e6; inactive. Depletion of dwg (GeneID 31265) #1 gave: firefly reporter light, replicate 1 = 1.99e5; firefly reporter light, replicate 2 = 1.18e5; Renilla control light, replicate 1 = 9.11e5; Renilla control light, replicate 2 = 6.34e5; inactive. For dwg (GeneID 31265) #2, the entry reads firefly reporter light, replicate 1 = 6.85e5; firefly reporter light, replicate 2 = 5.82e5; Renilla control light, replicate 1 = 1.06e6; Renilla control light, replicate 2 = 9.78e5; inactive. BI-1 (GeneID 38936) scored firefly reporter light, replicate 1 = 1.01e6; firefly reporter light, replicate 2 = 9.62e5; Renilla control light, replicate 1 = 1.02e6; Renilla control light, replicate 2 = 1.03e6; inactive.

After knock-down of CG13667 (GeneID 38956), the screen gave firefly reporter light, replicate 1 = 1.00e6; firefly reporter light, replicate 2 = 1.08e6; Renilla control light, replicate 1 = 1.33e6; Renilla control light, replicate 2 = 1.54e6; inactive. Knock-down of CG9377 (GeneID 34743) gave: firefly reporter light, replicate 1 = 3.05e5; firefly reporter light, replicate 2 = 6.20e5; Renilla control light, replicate 1 = 1.10e6; Renilla control light, replicate 2 = 1.96e6; inactive. Silencing of CG14777 (GeneID 31099) resulted in: firefly reporter light, replicate 1 = 3.02e5; firefly reporter light, replicate 2 = 2.63e5; Renilla control light, replicate 1 = 4.93e6; Renilla control light, replicate 2 = 3.65e6; inactive. Knock-down of Muc91C (GeneID 42246) #1 gave: firefly reporter light, replicate 1 = 3.12e5; firefly reporter light, replicate 2 = 2.41e5; Renilla control light, replicate 1 = 3.52e6; Renilla control light, replicate 2 = 3.17e6; inactive. Against Muc91C (GeneID 42246) #2, the entry reads firefly reporter light, replicate 1 = 6.20e5; firefly reporter light, replicate 2 = 5.65e5; Renilla control light, replicate 1 = 2.11e6; Renilla control light, replicate 2 = 2.30e6; inactive. Knock-down of Muc91C (GeneID 42246) #3 resulted in: firefly reporter light, replicate 1 = 7.08e5; firefly reporter light, replicate 2 = 5.96e5; Renilla control light, replicate 1 = 8.33e5; Renilla control light, replicate 2 = 9.51e5; inactive.

With knock-down of CG4658 (GeneID 34325), the record shows firefly reporter light, replicate 1 = 91872; firefly reporter light, replicate 2 = 1.02e5; Renilla control light, replicate 1 = 6.55e5; Renilla control light, replicate 2 = 1.01e6; inactive. Depletion of Caf1-180 (GeneID 31801) #1 came out at: firefly reporter light, replicate 1 = 62009; firefly reporter light, replicate 2 = 1.11e5; Renilla control light, replicate 1 = 5.38e5; Renilla control light, replicate 2 = 8.28e5; inactive. For Caf1-180 (GeneID 31801) #2, the entry reads firefly reporter light, replicate 1 = 9.31e5; firefly reporter light, replicate 2 = 8.77e5; Renilla control light, replicate 1 = 1.06e6; Renilla control light, replicate 2 = 9.06e5; inactive. For Eno (GeneID 33351), the values are firefly reporter light, replicate 1 = 1.12e5; firefly reporter light, replicate 2 = 1.38e5; Renilla control light, replicate 1 = 8.83e5; Renilla control light, replicate 2 = 1.07e6; inactive. Silencing of CG13891 (GeneID 38066) #1 gave: firefly reporter light, replicate 1 = 86111; firefly reporter light, replicate 2 = 1.12e5; Renilla control light, replicate 1 = 1.69e6; Renilla control light, replicate 2 = 1.73e6; inactive. For CG13891 (GeneID 38066) #2, the entry reads firefly reporter light, replicate 1 = 8.46e5; firefly reporter light, replicate 2 = 9.36e5; Renilla control light, replicate 1 = 1.26e6; Renilla control light, replicate 2 = 1.54e6; inactive.

For CG7272 (GeneID 39670), the values are firefly reporter light, replicate 1 = 2.03e5; firefly reporter light, replicate 2 = 1.89e5; Renilla control light, replicate 1 = 2.00e6; Renilla control light, replicate 2 = 1.67e6; inactive. After knock-down of Rrp40 (GeneID 319033) the results were firefly reporter light, replicate 1 = 2.05e5; firefly reporter light, replicate 2 = 2.28e5; Renilla control light, replicate 1 = 4.29e5; Renilla control light, replicate 2 = 3.79e5; inactive. lds (GeneID 45894) scored firefly reporter light, replicate 1 = 73837; firefly reporter light, replicate 2 = 1.05e5; Renilla control light, replicate 1 = 1.37e6; Renilla control light, replicate 2 = 1.15e6; inactive.
